Test results from patent publication US8946457B2, “Flavone derivatives and their preparative method and medical use” (Tianjin Medical University, priority 2010, dated 2015).
At least one structure is not confirmed: it was looked up by name or label, or the drawing left a doubt.

System: IR HepG2 cells
Assay: Glucose consumption assay in IR HepG2 cells
Format: cell-based, Human
Details: comparison with metformin
Protocol: The compounds were dissolved in DMSO as stock. The final solution was 1:1,000 dilution of the stock in DMEM.
Human HepG2 cells were cultured in 96-well cluster plates, after achieving confluence, 10^−[…] insulin was treated for 36 h in serum-free and phenol red-free high-glucose DMEM. After this incubation, the cells were washed four times with high-glucose DMEM ([…]) and twice with phosphate-buffered saline. The cells were added to serum-free and phenol red-free high-glucose DMEM containing the various test compounds at different concentrations, incubated for 24 h, and then glucose content in the culture medium was measured using a glucose assay kit.
The enhancement ratio of glucose consumption (GC) was calculated as follows: GC %=(GC treatment group−GC of control group)/GC of control group×100.
The potencies of the products were expressed as median effective concentration (EC50) values.
All data were presented as the means±SD. SPSS10.0 was used for statistical analysis. Statistical significance was at a level of 5% (p<0.05).

SMILES	Antidiabetic activity (glucose consumption) compared with metformin, in words
O=C(/C=C/c1ccc(O)c(Cl)c1)COc1c(-c2ccc(O)cc2)oc2cc(O)cc(O)c2c1=O [Compound I-11, 3-O-[(E)-4-(3-Chloro-4-hydroxyphenyl)-2-oxobut-3-en-1-yl] kaempferol]	comparable activity with that of metformin
O=C(/C=C/c1ccc(Br)cc1)COc1c(-c2ccc(O)cc2)oc2cc(O)cc(O)c2c1=O [Compound I-13, 3-O-[(E)-4-(4-Bromophenyl)-2-oxobut-3-en-1-yl] kaempferol]	comparable activity with that of metformin
